Series [1] in a line: general procedure: Fmoc solid-phase peptide synthesis; H-Leu-2-ClTrt resin; HBTU/HOBt/DIPEA; oxyma/DIC for 11. As to conditions: whole synthesis, hydrotrifluoroacetate (TFA salt).
Series [2] is described as follows: general procedure: Fmoc solid-phase peptide synthesis; H-Leu-2-ClTrt resin (loading 0.79 mmol/g); 2-ClTrt-Cl resin for 46 and 47; HBTU/HOBt/DIPEA; oxyma/DIC for 11. As to conditions: hydrotrifluoroacetate (TFA salt); for final HPLC purity: 220 nm.

Strings that start with PEPTIDE1 are HELM notation: dots part the residues, brackets hold end groups and non-standard residues. A value given as a limit tells only on which side of the number the result lay.

As for “PEPTIDE1{[NMeArg].R.P.[bbMe2Tyr].I.L}$$$$V2.0”, in series [1] (scale 0.0316 mmol), the isolated mass is reported as 16.7 mg and the isolated yield came out at 44%. In series [2] (whole synthesis), the “final HPLC purity” value is 97%.
For “PEPTIDE1{[NMeArg].R.P.Y.[cPeGly].L}$$$$V2.0” the same measures were 26.8 mg, 71% and 99%.
Regarding “PEPTIDE1{[MeArg].[Arg(cbC4DOTA)].P.Y.I.L}$$$$V2.0 [15]”, in series [2] (conjugation step), the “final HPLC purity” value is recorded as greater than 99% and the conjugation yield was determined as 62%.
For “Nα-Methyl-Nω-({4-N-[4-(4-fluorophenyl)phenylalanyl]aminobutyl}aminocarbonyl)Arg-Arg-Pro-Tyr-α-tert-butyl-Gly-Leu tetrakis(hydrotrifluoroacetate)” the same measures were greater than 99% and 46%.
On to “Nα-Methyl-Nω-{[8-N-(4-aminomethyl-3-fluorobenzoyl)amino-3,6-dioxaoctyl]aminocarbonyl}Arg-Arg-Pro-Tyr-α-tert-butyl-Gly-Leu tetrakis(hydrotrifluoroacetate)”, for which, in series [2] (late stage modification step), the “final HPLC purity” value is 99% and the step yield came out at 32%.
As to “Nα-Methyl-Nω-{[4-N-(Nα-{2-[4,7,10-tris(carboxymethyl)-1,4,7,10-tetraazacyclododecan-1-yl]acetyl}-4-{4-fluorophenyl}phenylalanyl)aminobutyl]aminocarbonyl}Arg-Arg-Pro-Tyr-α-tert-butyl-Gly-Leu tetrakis(hydrotrifluoroacetate)”, in series [2] (conjugation step), the “final HPLC purity” value was greater than 99% and the conjugation yield turned out to be 78%.
For “Nα-Methyl-Nω-{[4-(N-{2-[4,7,10-tris(carboxymethyl)-1,4,7,10-tetraazacyclododecan-1-yl]acetyl})aminobutyl]aminocarbonyl}Arg-Arg-Pro-Tyr-α-tert-butyl-Gly-Leu tetrakis(hydrotrifluoroacetate) [16]” the same measures were 99% and 75%.
On to “Nα-Methyl-Nω-{[8-N-(Nα-{2-[4,7,10-tris(carboxymethyl)-1,4,7,10-tetraazacyclododecan-1-yl]acetyl}-4-{4-fluorophenyl}-phenylalanyl)amino-3,6-dioxaoctyl]aminocarbonyl}Arg-Arg-Pro-Tyr-α-tert-butyl-Gly-Leu tetrakis(hydrotrifluoroacetate)”, for which, in series [2] (conjugation step), the “final HPLC purity” value worked out at 97% and the conjugation yield came to 81%.
Regarding “PEPTIDE1{R.[NMeArg(carb-C4N)].P.Y.[Tle].L}$$$$V2.0”, in series [1] (scale 0.047 mmol), the isolated mass was 39.0 mg and the isolated yield is 59%. Also, the “final HPLC purity” value in series [2] (whole synthesis) was found to be 99%.
On to “Nα-Methyl-Nω-{[4-(N-{2-[gallium(III)-4,7,10-tris(carboxymethyl)-1,4,7,10-tetraazacyclododecan-1-yl]acetyl})aminobutyl]aminocarbonyl}Arg-Arg-Pro-Tyr-α-tert-butyl-Gly-Leu tris(hydrotrifluoroacetate) [21]”, for which, in series [2] (late stage modification step), the “final HPLC purity” value is greater than 99% and the step yield came to 92%.
Turning to “PEPTIDE1{[NMeArg].R.P.Y.[cPrAla].L}$$$$V2.0”, in series [1] (scale 0.0316 mmol), the isolated mass is given as 17.5 mg and the isolated yield turned out to be 47%. Further, the “final HPLC purity” value in series [2] (whole synthesis) came to 98%.
Turning to “PEPTIDE1{[MeArg(cbDOO-DOTA)].R.P.Y.[Tle].L}$$$$V2.0 [18]”, in series [2] (conjugation step), the “final HPLC purity” value was 99% and the conjugation yield turned out to be 93%.
On to “Nα-Methyl-Nω-[(4-aminobutyl)aminocarbonyl]Arg-Arg-Pro-β,β-dimethyl-Tyr-α-tert-butyl-Gly-Leu tetrakis(hydrotrifluoroacetate)”, for which the isolated yield in series [1] worked out at 19%. The “final HPLC purity” value in series [2] (whole synthesis) was determined as 98%.
Consider “Nα-Methyl-Nω-({8-N-[Nα-(6-N-{2-[gallium(III)-4,7,10-tris(carboxymethyl)-1,4,7,10-tetraazacyclododecan-1-yl]acetyl}-aminohexanoyl)-4-(4-fluorophenyl)-phenylalanyl]amino-3,6-dioxaoctyl}aminocarbonyl)Arg-Arg-Pro-Tyr-α-tert-butyl-Gly-Leu”, for which the “final HPLC purity” value in series [2] (late stage modification step) was found to be 99%.
Turning to “PEPTIDE1{[NMeArg].R.P.Y.[aIle].L}$$$$V2.0”, in series [1] (scale 0.0316 mmol), the isolated mass was 13.8 mg and the isolated yield is 37%. In series [2] (whole synthesis), the “final HPLC purity” value was 99%.
For “Nα-Methyl-Nω-[(4-aminobutyl)aminocarbonyl]Arg-Arg-Pro-β,β-dimethyl-D-Tyr-Ile-Leu tetrakis(hydrotrifluoroacetate)”, in series [1], the isolated yield was determined as 17%. Also, the “final HPLC purity” value in series [2] (whole synthesis) was 95%.
Turning to “PEPTIDE1{[MeArg(cbC4DOTA)].R.P.[bbdiMeTyr].[Tle].L}$$$$V2.0”, in series [2] (conjugation step), the “final HPLC purity” value was determined as 98% and the conjugation yield amounted to 79%.
Regarding “Nα-Methyl-Nω-[(4-aminobutyl)aminocarbonyl]Arg-Arg-Pro-β,β-dimethyl-D-Tyr-α-tert-butyl-Gly-Leu tetrakis(hydrotrifluoroacetate)”, the isolated yield in series [1] is recorded as 18%. Also, the “final HPLC purity” value in series [2] (whole synthesis) was determined as 93%.
Regarding “PEPTIDE1{R.[MeArg(cbC4DOTA)].P.Y.[Tle].L}$$$$V2.0 [17]”, in series [2] (conjugation step), the “final HPLC purity” value is greater than 99% and the conjugation yield amounted to 28%.
With “Nα-Methyl-Nω-{[8-(N-{2-[gallium(III)-4,7,10-tris(carboxymethyl)-1,4,7,10-tetraazacyclododecan-1-yl]acetyl})amino-3,6-dioxaoctyl]aminocarbonyl}Arg-Arg-Pro-Tyr-α-tert-butyl-Gly-Leu tris(hydrotrifluoroacetate) [23]”, in series [2] (late stage modification step), the “final HPLC purity” value is listed as greater than 99% and the step yield stood at 92%.
For “Nα-Methyl-Nω-({8-N-[Nα-(6-aminohexanoyl)-4-(4-fluorophenyl)-phenylalanyl]amino-3,6-dioxaoctyl}aminocarbonyl)Arg-Arg-Pro-Tyr-α-tert-butyl-Gly-Leu tetrakis(hydrotrifluoroacetate)”, in series [2] (late stage modification step), the “final HPLC purity” value was greater than 99% and the step yield came out at 66%.
As for “PEPTIDE1{[NMeArg(carb-O2C6N)].R.P.Y.[Tle].L}$$$$V2.0”, in series [1] (scale 0.079 mmol), the isolated mass is given as 63.1 mg and the isolated yield was 55%. In addition, the “final HPLC purity” value in series [2] (whole synthesis) was determined as 89%.
For the substance “PEPTIDE1{[NMeArg].R.P.Y.[cPrGly].L}$$$$V2.0”, in series [1] (scale 0.0316 mmol), the isolated mass stood at 25.3 mg and the isolated yield was 69%. For the same substance, in series [2] (whole synthesis), the “final HPLC purity” value is 97%.
For “PEPTIDE1{[NMeArg].R.P.Y.[cBuGly].L}$$$$V2.0” the same measures were 27.6 mg, 74% and 99%.
On to “Nα-Methyl-Nω-{[4-N-(Nα-{2-[gallium(III)-4,7,10-tris(carboxymethyl)-1,4,7,10-tetraazacyclododecan-1-yl]acetyl}-4-(4-fluorophenyl)phenylalanyl)aminobutyl]aminocarbonyl}Arg-Arg-Pro-Tyr-α-tert-butyl-Gly-Leu tris(hydrotrifluoroacetate)”, for which the “final HPLC purity” value in series [2] (late stage modification step) is greater than 99%.
Turning to “Nα-Methyl-Nω-{[8-N-(Nα-{2-[gallium(III)-4,7,10-tris(carboxymethyl)-1,4,7,10-tetraazacyclododecan-1-yl]acetyl}-4-{4-fluorophenyl}-phenylalanyl)amino-3,6-dioxaoctyl]aminocarbonyl}Arg-Arg-Pro-Tyr-α-tert-butyl-Gly-Leu”, in series [2] (late stage modification step), the “final HPLC purity” value is greater than 99% and the step yield turned out to be 95%.
With “PEPTIDE1{[NMeArg].R.P.Y.[Deg].L}$$$$V2.0”, in series [1] (scale 0.0316 mmol), the isolated mass is 9.1 mg and the isolated yield is 25%. For the same substance, the “final HPLC purity” value in series [2] (whole synthesis) is recorded as 99%.
Regarding “Nα-(Nα-Methylarginyl)-Nω-{[4-(N-{2-[gallium(III)-4,7,10-tris(carboxymethyl)-1,4,7,10-tetraazacyclododecan-1-yl]acetyl})aminobutyl]aminocarbonyl}Arg-Pro-Tyr-α-tert-butyl-Gly-Leu tris(hydrotrifluoroacetate) [19]”, in series [2] (late stage modification step), the “final HPLC purity” value is reported as greater than 99% and the step yield was 95%.
For “Nα-Arginyl-Nα-methyl-Nω-{[4-(N-{2-[gallium(III)-4,7,10-tris(carboxymethyl)-1,4,7,10-tetraazacyclododecan-1-yl]acetyl})aminobutyl]aminocarbonyl}Arg-Pro-Tyr-α-tert-butyl-Gly-Leu tris(hydrotrifluoroacetate) [22]” the same measures were 98% and 99%.
On to “PEPTIDE1{[MeArg].[Arg(cbC4DOTA)].P.Y.[Tle].L}$$$$V2.0 [14]”, for which, in series [2] (conjugation step), the “final HPLC purity” value is given as greater than 99% and the conjugation yield is on record as 72%.
Consider “Nα-(Nα-Methylarginyl)-Nω-{[4-(N-{2-[gallium(III)-4,7,10-tris(carboxymethyl)-1,4,7,10-tetraazacyclododecan-1-yl]acetyl})aminobutyl]aminocarbonyl}Arg-Pro-Tyr-Ile-Leu tris(hydrotrifluoroacetate) [20]”, for which, in series [2] (late stage modification step), the “final HPLC purity” value is on record as greater than 99% and the step yield is recorded as greater than 99%.
With “Nα-Methyl-Nω-({8-N-[Nα-(6-N-{2-[4,7,10-tris(carboxymethyl)-1,4,7,10-tetraazacyclododecan-1-yl]acetyl}-aminohexanoyl)-4-(4-fluorophenyl)-phenylalanyl]amino-3,6-dioxaoctyl}aminocarbonyl)Arg-Arg-Pro-Tyr-α-tert-butyl-Gly-Leu”, in series [2] (conjugation step), the “final HPLC purity” value stood at 99% and the conjugation yield was 69%.
Consider “Nα-Methyl-Nω-{[4-N-(4-aminomethyl-3-fluorobenzoyl)aminobutyl]aminocarbonyl}Arg-Arg-Pro-Tyr-α-tert-butyl-Gly-Leu tetrakis(hydrotrifluoroacetate)”, for which, in series [2] (late stage modification step), the “final HPLC purity” value is recorded as greater than 99% and the step yield was determined as 24%.

(Values after publication PMC9564337 (Cancers, 2022).)
